Earlier results as cited in patent publication US20250018217A1, “PH[…] THERAPY APPARATUS AND METHODS FOR TREATING ORAL DISEASE” (Biolux Group SA, priority 2022, published 2025).
Entries after “also recorded” stand apart in the source; their conditions may differ. At least one structure is not confirmed: it was looked up by name or label, or the drawing left a doubt.

Test system: microbial species
Conditions: 100 nm; excitation wavelength 593 nm

Cc1cc(O)c2c(=O)c3c(O)cc(O)c4c5c(O)cc(O)c6c(=O)c7c(O)cc(C)c8c1c2c(c34)c(c78)c65 [Hypericin]
Antimicrobial activity (in solution): [55]S. aureus; also recorded: [56]E. coli
